# No constants are given. Whether binding was seen depends on the method and setting. In cells and extracts the contact can be indirect. Some results given as binding are weak or reduced against the parent protein; the word gives no strength. Sequences can lack the tags named with a protein.
# T1: HA-tagged GRXCR2 (mouse) (UniProt Q3TYR5)
# T1 sequence: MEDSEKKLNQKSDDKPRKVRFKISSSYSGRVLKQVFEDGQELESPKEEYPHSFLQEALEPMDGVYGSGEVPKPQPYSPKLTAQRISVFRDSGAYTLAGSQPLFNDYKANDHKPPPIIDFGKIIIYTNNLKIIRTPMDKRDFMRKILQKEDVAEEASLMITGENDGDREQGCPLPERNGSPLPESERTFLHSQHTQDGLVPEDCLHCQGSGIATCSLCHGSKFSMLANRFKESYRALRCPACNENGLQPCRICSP
# T2: Myc-tagged taperin (mouse) (UniProt A2AI08)
# T2 sequence: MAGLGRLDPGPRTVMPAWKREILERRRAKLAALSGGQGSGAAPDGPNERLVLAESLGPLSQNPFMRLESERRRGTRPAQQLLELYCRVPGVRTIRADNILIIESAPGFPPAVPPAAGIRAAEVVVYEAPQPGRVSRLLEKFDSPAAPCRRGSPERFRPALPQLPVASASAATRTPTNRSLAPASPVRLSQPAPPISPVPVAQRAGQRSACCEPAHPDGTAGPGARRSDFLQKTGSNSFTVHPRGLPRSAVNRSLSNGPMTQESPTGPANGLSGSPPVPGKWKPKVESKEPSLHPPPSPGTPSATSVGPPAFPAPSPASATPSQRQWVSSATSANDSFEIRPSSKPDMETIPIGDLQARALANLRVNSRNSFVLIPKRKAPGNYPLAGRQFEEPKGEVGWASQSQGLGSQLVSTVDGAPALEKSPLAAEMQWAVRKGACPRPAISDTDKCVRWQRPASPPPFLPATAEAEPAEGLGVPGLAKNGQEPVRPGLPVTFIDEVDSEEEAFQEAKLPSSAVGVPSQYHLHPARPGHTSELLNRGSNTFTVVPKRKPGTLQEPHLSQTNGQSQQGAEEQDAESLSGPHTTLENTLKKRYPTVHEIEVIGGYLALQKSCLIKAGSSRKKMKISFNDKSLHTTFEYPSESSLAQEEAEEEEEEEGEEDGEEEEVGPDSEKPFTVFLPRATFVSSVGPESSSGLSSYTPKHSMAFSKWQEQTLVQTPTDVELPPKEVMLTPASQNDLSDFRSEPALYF
# What was measured:
# HA-tagged GRXCR2 (mouse) = molecular target: T1, HA-tagged GRXCR2 (mouse); assay: co-IP; extracts of co-transfected HEK293 cells; immunoprecipitation with HA-antibody, western blot for co-expressed Myc-taperin (Figure 2B)
# [1] = molecular target: T2, Myc-tagged taperin (mouse); assay: co-IP; extracts of co-transfected HEK293 cells; immunoprecipitation with Myc-antibody, western blot for the co-expressed GFP-tagged protein (Figure 2A and 2C)
binding (HA-tagged GRXCR2 (mouse)),binding [1],Binder
binds,,"Myc-tagged taperin (protein, UniProt A2AI08 1-749) MAGLGRLDPGPRTVMPAWKREILERRRAKLAALSGGQGSGAAPDGPNERLVLAESLGPLSQNPFMRLESERRRGTRPAQQLLELYCRVPGVRTIRADNILIIESAPGFPPAVPPAAGIRAAEVVVYEAPQPGRVSRLLEKFDSPAAPCRRGSPERFRPALPQLPVASASAATRTPTNRSLAPASPVRLSQPAPPISPVPVAQRAGQRSACCEPAHPDGTAGPGARRSDFLQKTGSNSFTVHPRGLPRSAVNRSLSNGPMTQESPTGPANGLSGSPPVPGKWKPKVESKEPSLHPPPSPGTPSATSVGPPAFPAPSPASATPSQRQWVSSATSANDSFEIRPSSKPDMETIPIGDLQARALANLRVNSRNSFVLIPKRKAPGNYPLAGRQFEEPKGEVGWASQSQGLGSQLVSTVDGAPALEKSPLAAEMQWAVRKGACPRPAISDTDKCVRWQRPASPPPFLPATAEAEPAEGLGVPGLAKNGQEPVRPGLPVTFIDEVDSEEEAFQEAKLPSSAVGVPSQYHLHPARPGHTSELLNRGSNTFTVVPKRKPGTLQEPHLSQTNGQSQQGAEEQDAESLSGPHTTLENTLKKRYPTVHEIEVIGGYLALQKSCLIKAGSSRKKMKISFNDKSLHTTFEYPSESSLAQEEAEEEEEEEGEEDGEEEEVGPDSEKPFTVFLPRATFVSSVGPESSSGLSSYTPKHSMAFSKWQEQTLVQTPTDVELPPKEVMLTPASQNDLSDFRSEPALYF"
,binds,"GFP-tagged GRXCR2 (protein, UniProt Q3TYR5 1-254) MEDSEKKLNQKSDDKPRKVRFKISSSYSGRVLKQVFEDGQELESPKEEYPHSFLQEALEPMDGVYGSGEVPKPQPYSPKLTAQRISVFRDSGAYTLAGSQPLFNDYKANDHKPPPIIDFGKIIIYTNNLKIIRTPMDKRDFMRKILQKEDVAEEASLMITGENDGDREQGCPLPERNGSPLPESERTFLHSQHTQDGLVPEDCLHCQGSGIATCSLCHGSKFSMLANRFKESYRALRCPACNENGLQPCRICSP"
,no binding,"GRXCR1-GFP (protein, UniProt Q50H32 1-290) MLRRETKPESDRPRKVRFRIASSHSGRVLKEVYEDGQAPGSLDSECASICAIDGLSDSEGQQNGHIGSEDNEQEKDQDNLLVLARTASEKAFGTRRVNILSKNGTVRGVKYKVSAGQALFNNLTKVLQQPSADLEFDRVVIYTTCLRVVRTTFERCELVRKIFQNHRVKFEEKNIALNGDYGKELDERCRRVSEAPSLPVVFIDGHYLGGAEKILSMNESGELQDLLTKIERVQHPHECPSCGGFGFLPCSVCHGSKMSVFRNCFTDAFKALKCTACNENGLQRCKNCTC"

# — article PMC6317715
